Reference: article doi:10.1101/2023.12.21.572796

How the values were obtained:
[1] = biological target: C-terminal domain of the CAMSA2147 CJIE1 H-fiber (tail fiber protein H) (CJIE1 prophage of C. jejuni CAMSA2147); assay: pull-down
[2] = biological target: C-terminal domain of the RM1221 CJIE1 H-fiber (tail fiber protein H) (CJIE1 prophage of C. jejuni RM1221); assay: pull-down

Binder | binding [1] | binding [2]
major outer membrane protein (MOMP) of C. jejuni CAMSA2147 (receptor, UniProt P80672 23-424) TPLEEAIKDVDVSGVLRYRYDTGNFDKNFVNNSNLNNSKQDHKYRAQVNFSAAIADNFKAFVQFDYNAADGGYGANGIKNDQKGLFVRQLYLTYTNEDVATSVIAGKQQLNLIWTDNAIDGLVGTGVKVVNNSIDGLTLAAFAVDSFMAAEQGADLLEHSNISTTSNQAPFKVDSVGNLYGAAAVGSYDLAGGQFNPQLWLAYWDQVAFFYAVDAAYSTTIFDGINWTLEGAYLGNSLDSELDDKTHANGNLFALKGSIEVNGWDASLGGLYYGDKEKASTVVIEDQGNLGSLLAGEEIFYTTGSRLNGDTGRNIFGYVTGGYTFNETVRVGADFVYGGTKTEAANHLGGGKKLEAVARVDYKYSPKLNFSAFYSYVNLDQGVNTNESADHSTVRLQALYKF | binds | no binding
major outer membrane protein (MOMP) of C. jejuni RM1221 (receptor, UniProt P80672 23-424) TPLEEAIKDVDVSGVLRYRYDTGNFDKNFVNNSNLNNSKQDHKYRAQVNFSAAIADNFKAFVQFDYNAADGGYGANGIKNDQKGLFVRQLYLTYTNEDVATSVIAGKQQLNLIWTDNAIDGLVGTGVKVVNNSIDGLTLAAFAVDSFMAAEQGADLLEHSNISTTSNQAPFKVDSVGNLYGAAAVGSYDLAGGQFNPQLWLAYWDQVAFFYAVDAAYSTTIFDGINWTLEGAYLGNSLDSELDDKTHANGNLFALKGSIEVNGWDASLGGLYYGDKEKASTVVIEDQGNLGSLLAGEEIFYTTGSRLNGDTGRNIFGYVTGGYTFNETVRVGADFVYGGTKTEAANHLGGGKKLEAVARVDYKYSPKLNFSAFYSYVNLDQGVNTNESADHSTVRLQALYKF |  | binds

These are yes or no findings as the source states them, for the method shown. Binding seen in cells or lysates may run through a third protein. Binding calls can cover weak binding; strength is not graded here.
